# Measured values as given in PubChem BioAssay AID540276 (National Center for Advancing Translational Sciences (NCATS), 2011).
# Hit rate of the full screen: of about 300,000 compounds, about 5,400 (1.8%) were called active. Inconclusive means that the source gave no clear call. Such entries were picked first, then a sample of the others. The call rests on the fitted dose curve; tested in HEK293 cells. Potencies beside an inconclusive call are fits to weak or partial responses and may not hold up.
# Assay: qHTS for inhibitors of binding or entry into cells for Marburg Virus
# Details: Marburg virus pseudotyped entry inhibition, cell reporter; activity change, negative = inhibition: at 37.8 µM (top of the series) unless noted
# On the % scale 0 is the no-effect control and ±100 the full control effect; potency means the concentration at half of the fitted maximal effect.
Compound,Potency,"activity change, negative = inhibition"
COc1ccc(Nc2nnc(SC(C(=O)Nc3ccc(OC)c(Cl)c3)c3ccccc3)s2)cc1 (stereo not drawn),"inconclusive: 11.2 µM [inhibitor, single point]",–
CC(=O)c1c(C)[nH]c(C(=O)Nc2nc(-c3ccc(Cl)cc3)cs2)c1C,"inconclusive: 17.8 µM [inhibitor, single point]",–
O=C(NC1CCCCC1)c1cc2c(cc1Cl)N1CCCCCC1=NS2(=O)=O,–,inactive: 15.2% [at 46.1 µM]
COc1ccc(NC(=O)c2ccc(C)cc2)c(OC)c1,"inconclusive: 0.501 µM [activator, full curve, poor fit]",–
COP(=O)(OC)C(NC(C)=O)C(Cl)(Cl)Cl (stereo not drawn),"inconclusive: 35.5 µM [activator, single point]",–
c1coc(C2Nc3ccccc3C3OCCC23)c1 (stereo not drawn),"inconclusive: 35.5 µM [activator, single point]",–
Cc1ccc(S(=O)(=O)c2nc(-c3ccccc3Cl)oc2N2CCN(C)CC2)cc1,"inconclusive: 12.6 µM [inhibitor, partial curve, poor fit]",–
Cc1ccc(NC(=O)Nc2ccccc2)cc1[N+](=O)[O-],–,inactive: 10.1%
CCN(CC)CCn1c(SCC(=O)NCc2ccco2)nc2c(sc3ccccc32)c1=O,"inconclusive: 25.9 µM [inhibitor, partial curve, poor fit]",–
COc1ccc(NCC(O)Cn2c(C)c(C)c3ccccc32)cc1 (stereo not drawn),–,inactive: -26.4% [at 46.1 µM]
COc1cc2c(cc1OC)C(C(=O)Nc1ccccc1N1CCN(C)CC1)C1c3ccccc3CCN1C2=O (stereo not drawn),"inconclusive: 22.4 µM [inhibitor, single point]",–
CC1=C(C(=O)Nc2ccc(Cl)cc2)C(C(C)C)n2nc(SCc3cccc(C)c3)nc2N1 (stereo not drawn),–,inactive: 4.68% [at 46.1 µM]
CC(C)Oc1ccc(C(CC(=O)NCCCN(C)C)c2ccc(F)cc2)cc1 (stereo not drawn),"inconclusive: 0.251 µM [activator, full curve, poor fit]",–
CCOC(=O)N1CCN(C(=O)CNC(=O)c2ccc(Cl)cc2)CC1,"inconclusive: 0.562 µM [inhibitor, partial curve, poor fit]",–
O=C(Nc1ccccc1N1CCCCC1)c1cccc([N+](=O)[O-])c1,"inconclusive: 28.2 µM [inhibitor, single point]",–
CC(C)n1c(N2CCN(CC(=O)Nc3ccc4c(c3)OCCO4)CC2)nc2ccccc21,"inconclusive: 0.0206 µM [inhibitor, full curve, poor fit]",–
CO/N=C/NC(=O)NOCc1ncc(C(F)(F)F)cc1Cl,"inconclusive: 1.26 µM [activator, single point]",–
COc1ccc2c(c1)c(CCN1CCOCC1)c(C)n2C(=O)c1cccc(Cl)c1Cl,"inconclusive: 29.1 µM [inhibitor, single point]",–
O=C(/C=C/c1ccco1)Nc1ccc2nn(-c3ccccc3)nc2c1,"inconclusive: 0.891 µM [inhibitor, partial curve, poor fit]",–
Cc1cc(C(=O)N2CC=C(c3ccccc3)CC2)c2ccccc2n1,"inconclusive: 0.447 µM [inhibitor, full curve, poor fit]",–
CCc1ccccc1NNC(=O)CCc1ccccc1,"inconclusive: 10 µM [inhibitor, partial curve, poor fit]",–
COc1ccc(N2CCN(C(=O)CCc3ccc(S(=O)(=O)NC(C)C)cc3)CC2)cc1,"inconclusive: 7.3 µM [inhibitor, partial curve, poor fit]",–

Compound,Potency,"activity change, negative = inhibition"
Cc1ccc2nc(-c3ccccn3)c(Nc3ccc(F)cc3)n2c1,"inconclusive: 7.08 µM [activator, partial curve]",–
Cc1ccc2nc(NC(=S)NC(=O)c3ccc(OC(C)C)cc3)sc2c1,–,inactive: -6.57%
CC(Oc1ccc(C(C)(C)C)cc1)C(=O)NC1CC(C)(C)NC(C)(C)C1 (stereo not drawn),"inconclusive: 28.2 µM [inhibitor, single point]",–
O=C(Cc1ccc(F)cc1)N1CCC(c2nc3c(nnn3Cc3ccc(Cl)cc3)c(=O)[nH]2)CC1,–,inactive: 3.12% [at 46.1 µM]
COc1ccccc1S(=O)(=O)Cc1ccc(C(=O)N2CCN(c3ccc(C)cc3)C(C)C2)o1 (stereo not drawn),–,inactive: 5.84%
Cc1nn(C)c(C)c1NC(=O)CCl,–,inactive: 2.68% [at 46.1 µM]
CCOC(=O)C1CCN(C(=O)COC(=O)c2nc3nc(C)cc(C)n3n2)CC1,–,inactive: -0.506%
CC1CCN(S(=O)(=O)c2ccc(NC(=S)NC(=O)c3ccc(Cl)cc3)cc2)CC1,"inconclusive: 3.16 µM [inhibitor, single point]",–
COc1ccc(N2CCN(C(c3cc4cc(C)ccc4[nH]c3=O)c3nnnn3Cc3ccccc3)CC2)cc1 (stereo not drawn),"inconclusive: 18.3 µM [inhibitor, partial curve]",–
Cc1ccc(CCNC(=O)C2CCCN(Cc3nc(-c4cccc(Cl)c4)oc3C)C2)cc1 (stereo not drawn),–,inactive: -11.9% [at 46.1 µM]
CN(CC(=O)NC1CC1)S(=O)(=O)c1cc(Cl)ccc1Cl,–,inactive: -15.6% [at 46.1 µM]
O=C(N1CCOCC1)N1CCN(c2ccc(F)cc2)CC1,–,inactive: 2.15%
CC1=CC(C)(C)n2c(O)c(N=N)c3cc(C)cc1c32,"inconclusive: 2 µM [inhibitor, partial curve, poor fit]",–
COc1nc(-c2cccs2)cc(-c2ccc(C)cc2)c1C#N,"inconclusive: 5.8 µM [inhibitor, full curve, poor fit]",–
CCCOc1cccc(C(=O)Nc2ccc(Br)cc2F)c1,"inconclusive: 29.1 µM [inhibitor, single point]",–
O=c1c2ccccc2n(Cc2ccc(F)cc2)c(=O)n1C1CCCC1,"inconclusive: 15.8 µM [inhibitor, single point]",–
CCCC(=O)c1c(C)c2ccccc2n1C,–,inactive: 0.677%
COC(=O)c1cc(NC(=O)c2cc(-c3ccc(Cl)cc3)oc2C(F)(F)F)ccc1N1CCOCC1,"inconclusive: 5.62 µM [inhibitor, full curve, poor fit]",–
COc1ccc(-n2c(=O)c3ccccc3n(CC(=O)NC3CCCCC3)c2=O)c(OC)c1,"inconclusive: 6.51 µM [inhibitor, single point]",–
COc1cccc(-c2nn(C)c3sc(C(=O)NCc4ccc5c(c4)OCO5)cc23)c1,–,inactive: 0.495%
O=C(Cn1nc(Br)nc1Br)c1ccccc1,"inconclusive: 1.12 µM [inhibitor, single point]",–

# Entries shown so far with bromine, in the order listed:
Compound,Potency,"activity change, negative = inhibition"
CCCOc1cccc(C(=O)Nc2ccc(Br)cc2F)c1,"inconclusive: 29.1 µM [inhibitor, single point]",–
O=C(Cn1nc(Br)nc1Br)c1ccccc1,"inconclusive: 1.12 µM [inhibitor, single point]",–
